Measurements reported in PubChem BioAssay AID1259254 (NCATS, 2017)

- Aim: 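Genome-wide screen for genes that prevent DNA re-replication in cancer cells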 (primary screen)
- Cell system: human HCT116 colorectal cancer cells
- Reagent: single siRNA against human genes
- Time to read-out: 3 days
- Measured: 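Imaged Hoechst DNA stain sorts each cell into a cycle phase by DNA amount; per plate, G2 fraction set to 0% for non-targeting and 100% for GMNN siRNA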
- Direction: G2 robust z-score and G2 cells, % of GMNN control: higher = more G2 cells, more excess DNA replication; raw share of cells in G2: higher = larger share of cells with G2 DNA content
- Active means: 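An siRNA counts as active if its G2 robust z-score lies at least 5 MADs above the screen median; here such calls match roughly 38% of GMNN control or more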
This is one part, drawn at random, of about 59,000 reagents. In the full data, about 1,550 (2.6%) were called active. 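G2 share is only a proxy for re-replication; each gene was hit by three separate siRNAs, and active genes were retested.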 The raw values are shown without normalisation. A number with no mark means an inactive call. Reagents against one gene are numbered here. No sequences are given here. The record does not give: the amount of reagent.

gene	reagent	G2 robust z-score	G2 cells, % of GMNN control	raw share of cells in G2 (%)
SPATA31G1 (SPATA31 subfamily G member 1)	1	2.5	20.6	11.9
SPATA31G1 (SPATA31 subfamily G member 1)	2	1.02	10.2	6.33
SPATA31G1 (SPATA31 subfamily G member 1)	3	-0.719	-2.09	1.82
TAS1R3 (taste 1 receptor member 3)	1	2.95	23.8	12
TAS1R3 (taste 1 receptor member 3)	2	-0.478	-0.396	3.34
TAS1R3 (taste 1 receptor member 3)	3	-0.257	1.16	2.76
ATOH1 (atonal bHLH transcription factor 1)	1	-0.739	-2.23	3.96
ATOH1 (atonal bHLH transcription factor 1)	2	0.173	4.18	6.56
ATOH1 (atonal bHLH transcription factor 1)	3	-0.453	-0.219	3.91
TMEM114 (transmembrane protein 114)	1	-0.0466	2.64	4.06
TMEM114 (transmembrane protein 114)	2	0.271	4.88	4.75
TMEM114 (transmembrane protein 114)	3	3.43	27.1	13.5
TRA2A (transformer 2 alpha homolog)	1	10.3 (active)	75.2	29.1
TRA2A (transformer 2 alpha homolog)	2	0.0984	3.66	7.82
TRA2A (transformer 2 alpha homolog)	3	0.679	7.75	6.53
GINS4 (GINS complex subunit 4)	1	-1.3	-6.18	2.05
GINS4 (GINS complex subunit 4)	2	-0.386	0.253	3.53
GINS4 (GINS complex subunit 4)	3	-0.759	-2.37	1.69
PEBP4 (phosphatidylethanolamine binding protein 4)	1	0.832	8.82	6.76
PEBP4 (phosphatidylethanolamine binding protein 4)	2	-0.25	1.21	3.36
PEBP4 (phosphatidylethanolamine binding protein 4)	3	-0.994	-4.03	1.49
IL26 (interleukin 26)	1	3.77	29.5	15.9
IL26 (interleukin 26)	2	1.68	14.8	10.3
IL26 (interleukin 26)	3	1.94	16.6	8.45
HOXC12 (homeobox C12)	1	1.04	10.3	9.59
HOXC12 (homeobox C12)	2	-0.859	-3.08	3.07
HOXC12 (homeobox C12)	3	-1.29	-6.14	2.81

Laid out differently: entries from further up.
| gene | reagent | G2 robust z-score | G2 cells, % of GMNN control | raw share of cells in G2 (%) |
| --- | --- | --- | --- | --- |
| ATOH1 (atonal bHLH transcription factor 1) | 3 | -0.453 | -0.219 | 3.91 |
| TMEM114 (transmembrane protein 114) | 1 | -0.0466 | 2.64 | 4.06 |
| TMEM114 (transmembrane protein 114) | 2 | 0.271 | 4.88 | 4.75 |
| TMEM114 (transmembrane protein 114) | 3 | 3.43 | 27.1 | 13.5 |
| TRA2A (transformer 2 alpha homolog) | 1 | 10.3 (active) | 75.2 | 29.1 |
| TRA2A (transformer 2 alpha homolog) | 2 | 0.0984 | 3.66 | 7.82 |
| TRA2A (transformer 2 alpha homolog) | 3 | 0.679 | 7.75 | 6.53 |
| GINS4 (GINS complex subunit 4) | 1 | -1.3 | -6.18 | 2.05 |
| GINS4 (GINS complex subunit 4) | 2 | -0.386 | 0.253 | 3.53 |
| GINS4 (GINS complex subunit 4) | 3 | -0.759 | -2.37 | 1.69 |
| PEBP4 (phosphatidylethanolamine binding protein 4) | 1 | 0.832 | 8.82 | 6.76 |
| PEBP4 (phosphatidylethanolamine binding protein 4) | 2 | -0.25 | 1.21 | 3.36 |

Additional records follow.
gene	reagent	G2 robust z-score	G2 cells, % of GMNN control	raw share of cells in G2 (%)
TASP1 (taspase 1)	1	-0.323	0.693	3.36
TASP1 (taspase 1)	2	-0.529	-0.753	4.23
TASP1 (taspase 1)	3	0.656	7.58	7.28
SNCB (synuclein beta)	1	-0.796	-2.63	3.96
SNCB (synuclein beta)	2	0.0333	3.2	5.16
SNCB (synuclein beta)	3	1.46	13.2	8.03
IFITM3 (interferon induced transmembrane protein 3)	1	1.12	10.8	10.2
IFITM3 (interferon induced transmembrane protein 3)	2	0.549	6.83	6.8
IFITM3 (interferon induced transmembrane protein 3)	3	0.403	5.8	5.52
MRPS30 (mitochondrial ribosomal protein S30)	1	0.786	8.5	8.31
MRPS30 (mitochondrial ribosomal protein S30)	2	-0.824	-2.83	2.97
MRPS30 (mitochondrial ribosomal protein S30)	3	-0.858	-3.07	2.03
LINC01346 (long independently transcribed non-coding RNA 1346)	1	0.899	9.29	6.72
LINC01346 (long independently transcribed non-coding RNA 1346)	2	-0.368	0.379	4.07
LINC01346 (long independently transcribed non-coding RNA 1346)	3	0.721	8.04	5.91
SLC12A9	1	-0.707	-2.01	5.55
SLC12A9	2	-0.836	-2.91	3.4
SLC12A9	3	-0.642	-1.55	3.69
MLC1 (modulator of VRAC current 1)	1	0.451	6.14	5.97
MLC1 (modulator of VRAC current 1)	2	-1	-4.08	2.79
MLC1 (modulator of VRAC current 1)	3	0.11	3.74	7.87
MCM2 (minichromosome maintenance complex component 2)	1	-0.401	0.144	3.24
MCM2 (minichromosome maintenance complex component 2)	2	0.697	7.87	8.59
MCM2 (minichromosome maintenance complex component 2)	3	1.1	10.7	9.5
LTBP1 (latent transforming growth factor beta binding protein 1)	1	-0.762	-2.39	2.41
LTBP1 (latent transforming growth factor beta binding protein 1)	2	-0.374	0.338	5.49
LTBP1 (latent transforming growth factor beta binding protein 1)	3	2.47	20.4	13.5
LOC389405 (retired record)	1	-0.934	-3.61	2.54
LOC389405 (retired record)	2	1.43	13	9.08
LOC389405 (retired record)	3	-0.35	0.507	4.85
ZNF410 (zinc finger protein 410)	1	-0.157	1.87	4.9
ZNF410 (zinc finger protein 410)	2	2.66	21.7	14.6
ZNF410 (zinc finger protein 410)	3	-0.176	1.73	4.96
SLCO4A1	1	-0.186	1.66	6.92
SLCO4A1	2	-0.598	-1.24	3.78
SLCO4A1	3	0.264	4.83	5.57
MOS (MOS proto-oncogene, serine/threonine kinase)	1	-0.994	-4.03	4.28
MOS (MOS proto-oncogene, serine/threonine kinase)	2	0.68	7.75	8.02
MOS (MOS proto-oncogene, serine/threonine kinase)	3	-1.2	-5.47	2.1
SNAPC1 (small nuclear RNA activating complex polypeptide 1)	1	0.248	4.72	7.22
SNAPC1 (small nuclear RNA activating complex polypeptide 1)	2	-1.02	-4.23	2.22
SNAPC1 (small nuclear RNA activating complex polypeptide 1)	3	0.53	6.7	5.72
